Data reported in publication doi:10.1101/2020.06.24.169185.
These are yes or no findings as the source states them, for the method shown. For part of these data: In cells and extracts the contact can be indirect. Some entries that bind do so weakly or less than the wild type. Where a sequence is shown, tags or fusion partners need not be part of it. Values belong to the binder of their own block, whether it stands above or below them.

Chains of the proteins cited; added tags and fusions are not shown.
UniProt P48432: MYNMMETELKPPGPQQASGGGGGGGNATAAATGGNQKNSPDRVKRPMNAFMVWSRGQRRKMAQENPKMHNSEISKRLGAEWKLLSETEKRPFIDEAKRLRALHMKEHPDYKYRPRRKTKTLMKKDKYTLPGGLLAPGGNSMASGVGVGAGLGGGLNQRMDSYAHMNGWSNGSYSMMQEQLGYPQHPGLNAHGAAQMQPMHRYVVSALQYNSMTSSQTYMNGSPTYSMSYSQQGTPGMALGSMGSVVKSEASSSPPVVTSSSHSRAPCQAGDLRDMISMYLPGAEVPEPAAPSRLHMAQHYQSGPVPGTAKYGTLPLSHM
UniProt P20263: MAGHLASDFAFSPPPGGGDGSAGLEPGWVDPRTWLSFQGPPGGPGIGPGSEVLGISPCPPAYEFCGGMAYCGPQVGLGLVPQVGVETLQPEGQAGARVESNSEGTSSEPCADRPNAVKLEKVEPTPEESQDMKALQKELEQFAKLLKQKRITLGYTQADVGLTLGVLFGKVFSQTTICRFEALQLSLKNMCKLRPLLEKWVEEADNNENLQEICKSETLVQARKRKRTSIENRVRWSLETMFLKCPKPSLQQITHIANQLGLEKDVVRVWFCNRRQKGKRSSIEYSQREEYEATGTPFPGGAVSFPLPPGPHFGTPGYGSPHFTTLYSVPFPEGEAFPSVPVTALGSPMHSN

Columns and labels:
(FLAG)3-Sox2 [1] = biological target: (FLAG)3-Sox2 (UniProt P48432); assay: co-IP
(FLAG)3-Nanog = biological target: T1, (FLAG)3-Nanog (UniProt Q80Z64); assay: co-IP
T1 sequence: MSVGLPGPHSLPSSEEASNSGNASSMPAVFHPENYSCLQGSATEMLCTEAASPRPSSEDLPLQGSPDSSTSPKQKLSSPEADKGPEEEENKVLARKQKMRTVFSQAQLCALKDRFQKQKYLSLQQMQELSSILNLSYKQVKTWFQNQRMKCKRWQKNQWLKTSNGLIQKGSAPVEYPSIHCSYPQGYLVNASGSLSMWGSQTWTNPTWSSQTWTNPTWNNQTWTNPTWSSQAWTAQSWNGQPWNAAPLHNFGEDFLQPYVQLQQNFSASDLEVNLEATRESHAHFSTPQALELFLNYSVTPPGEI

(FLAG)3-Sox2 [2] = biological target: (FLAG)3-Sox2 (UniProt P48432); assay: fluorescence correlation spectroscopy
(FLAG)3-Oct4 = (FLAG)3-Oct4 (UniProt P20263); assay: fluorescence correlation spectroscopy
GFP-Nanog = GFP-Nanog (UniProt Q80Z64); assay: fluorescence correlation spectroscopy

binding ((FLAG)3-Sox2 [1]): binds
binding ((FLAG)3-Nanog): binds
binding ((FLAG)3-Sox2 [2]): binds
binding ((FLAG)3-Oct4): binds
binding (GFP-Nanog): binds
B1: GFP-Nanog (protein, UniProt Q80Z64 1-305)
chain: T1 sequence

binding ((FLAG)3-Nanog): binds
B2: mCherry-Nanog (protein, UniProt Q80Z64 1-305)
chain: T1 sequence
